# Test results reported in publication PMC11758954.
# Tested on: T1, FXRα1 (Homo sapiens)
# T1 sequence (looked up, limits assumed): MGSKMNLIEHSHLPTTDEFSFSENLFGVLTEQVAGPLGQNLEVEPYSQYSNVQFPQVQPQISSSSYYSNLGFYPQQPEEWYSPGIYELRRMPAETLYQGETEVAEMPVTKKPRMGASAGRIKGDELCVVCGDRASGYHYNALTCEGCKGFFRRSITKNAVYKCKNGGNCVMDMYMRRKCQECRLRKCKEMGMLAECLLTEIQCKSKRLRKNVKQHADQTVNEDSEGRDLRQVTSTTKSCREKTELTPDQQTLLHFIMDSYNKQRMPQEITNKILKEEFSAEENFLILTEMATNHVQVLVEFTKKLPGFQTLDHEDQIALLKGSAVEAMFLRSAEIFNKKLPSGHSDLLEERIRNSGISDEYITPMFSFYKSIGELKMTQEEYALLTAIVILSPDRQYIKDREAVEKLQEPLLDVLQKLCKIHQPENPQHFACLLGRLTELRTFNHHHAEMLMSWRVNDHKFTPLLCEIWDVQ
# Assay: EMSA
# Settings: 5 µg nuclear extract, 1 µg poly(dI-dC), EMSA buffer (composition not given), 30 min at 4 °C, 6% native PAGE in 0.5x TBE pH 8.3, protein in a lysate after overexpression, protein details: Flag and HA epitopes (pcDNA3.2), label: 32P
sequence,measurement,setting,value
GATGGGCCAAGGTCAATGACCTCGGGG (double strand) [IR-1 consensus FXRE],binding result,"HeLa nuclear extract, FXRα1 without co-transfected RXRα (endogenous RXR possible)",binds
same,binding result,"HepG2 nuclear extract, complex enhanced with increasing FXRα1 plasmid over endogenous complex",binds

# The exact form of at least one protein or probe is not confirmed. Where cells or extracts were used, other partners may take part. Tags and fusion partners may be left off the protein sequences shown.
